From the odorant receptor screen of Mainland et al. (2015)
“And” between values parts separate entries of the source, which are not always exact repeats. Equal entries are not always repeated. The list shows a part of the results. Each value is one well over the wells without odorant, computed here; the data are noisy.

How the values were obtained:
Assay in all cases: odorant receptor activation (CRE luciferase / Renilla) (fold of no-odor wells); higher = more activation
Conditions in all cases: 100 µM
[1] = tested on: OR2J2 Y74H/T111A/V146A/T218A clone 1402
[2] = tested on: OR2J2 clone 1403
[3] = tested on: OR2J2 clone 1404
[4] = tested on: OR2K2 clone 1340
[5] = tested on: OR2K2 clone 1450
[6] = tested on: OR2L13 clone 1481
[7] = tested on: OR2L2 clone 1465
[8] = tested on: OR2L3 clone 1526
[9] = tested on: OR2L5 clone 1697
[10] = tested on: OR2J3 I228V/M261I clone 1616

Question: Which odorant receptor activation [1] does the source give for `CCCCCC(C)=O` [2-heptanone] here?
Answer: The odorant receptor activation was 0.764.

Question: And the odorant receptor activation [2]?
Answer: Its odorant receptor activation is 1.22.

Question: What about the odorant receptor activation [3] of the same compound?
Answer: The odorant receptor activation was 1.05.

Question: What about the odorant receptor activation [4] of the same compound?
Answer: The odorant receptor activation was 1.69.

Question: And the odorant receptor activation [5]?
Answer: The odorant receptor activation was 1.32 and 0.754.

Question: And the odorant receptor activation [6]?
Answer: The odorant receptor activation was 1.3 and 0.737.

Question: What about the odorant receptor activation [7] of the same compound?
Answer: The odorant receptor activation was 0.966 and 0.726.

Question: What about the odorant receptor activation [8] of the same compound?
Answer: The odorant receptor activation was 1.05 and 0.504.

Question: How did the odorant receptor activation [1] turn out when `CC1COCc2cc3c(cc21)C(C)(C)C(C)C3(C)C` (centres undefined) [galaxolide] was run?
Answer: Its odorant receptor activation is 2.33.

Question: What about the odorant receptor activation [2] of the same compound?
Answer: The odorant receptor activation was 2.28.

Question: And the odorant receptor activation [3]?
Answer: The odorant receptor activation was 2.03.

Question: What about the odorant receptor activation [4] of the same compound?
Answer: Its odorant receptor activation is 4.25 and 5.64.

Question: What about the odorant receptor activation [5] of the same compound?
Answer: The odorant receptor activation was 2.44.

Question: What about the odorant receptor activation [6] of the same compound?
Answer: The odorant receptor activation was 1.21 and 3.19.

Question: And the odorant receptor activation [8]?
Answer: The odorant receptor activation was 7.34 and 4.56.

Question: What about the odorant receptor activation [9] of the same compound?
Answer: Its odorant receptor activation is 3.52 and 1.41.

Question: For `c1cnccn1` [pyrazine], which odorant receptor activation [1] is on record?
Answer: The odorant receptor activation was 0.973.

Question: What about the odorant receptor activation [2] of the same compound?
Answer: Its odorant receptor activation is 1.31.

Question: What about the odorant receptor activation [3] of the same compound?
Answer: Its odorant receptor activation is 1.36.

Question: And the odorant receptor activation [10]?
Answer: The odorant receptor activation was 1.27.

Question: And the odorant receptor activation [4]?
Answer: The odorant receptor activation was 0.74.

Question: What about the odorant receptor activation [5] of the same compound?
Answer: Its odorant receptor activation is 1.07.

Question: And the odorant receptor activation [6]?
Answer: Its odorant receptor activation is 0.745.

Question: And the odorant receptor activation [7]?
Answer: The odorant receptor activation was 1.

Question: What about the odorant receptor activation [8] of the same compound?
Answer: Its odorant receptor activation is 0.683.

Question: What about the odorant receptor activation [9] of the same compound?
Answer: The odorant receptor activation was 0.958.

Question: How did the odorant receptor activation [1] turn out when `CC(=O)c1ccccc1` [acetophenone] was run?
Answer: The odorant receptor activation was 0.819.

Question: What about the odorant receptor activation [2] of the same compound?
Answer: Its odorant receptor activation is 1.05.

Question: What about the odorant receptor activation [3] of the same compound?
Answer: The odorant receptor activation was 1.98.

Question: And the odorant receptor activation [4]?
Answer: Its odorant receptor activation is 1.24.

Question: And the odorant receptor activation [5]?
Answer: Its odorant receptor activation is 1.04 and 1.1.

Question: And the odorant receptor activation [6]?
Answer: Its odorant receptor activation is 1.06 and 0.982.

Question: What about the odorant receptor activation [7] of the same compound?
Answer: Its odorant receptor activation is 1.17 and 0.778.

Question: And the odorant receptor activation [8]?
Answer: Its odorant receptor activation is 1.03 and 0.784.

Question: Which results are given for `CC(=O)OCC=C(C)CCC=C(C)C` [geranyl acetate]?
Answer: odorant receptor activation [1]: 1.07; odorant receptor activation [2]: 1.16; odorant receptor activation [3]: 1.59; odorant receptor activation [10]: 1.59; odorant receptor activation [4]: 1.38 and 1.06; odorant receptor activation [5]: 1.36; odorant receptor activation [6]: 1.12 and 1.26; odorant receptor activation [7]: 1.12 and 1.64; odorant receptor activation [8]: 0.93 and 1.52; odorant receptor activation [9]: 1.35

Question: Which results are given for `CC(C)=CCCC(C)=CC=O` [citral]?
Answer: odorant receptor activation [1]: 0.319; odorant receptor activation [2]: 0.294; odorant receptor activation [3]: 0.517; odorant receptor activation [10]: 7.34; odorant receptor activation [4]: 1.15; odorant receptor activation [5]: 0.246; odorant receptor activation [6]: 0.999; odorant receptor activation [7]: 1.27; odorant receptor activation [8]: 1.12; odorant receptor activation [9]: 0.023

Question: What does the source list for `CC1=NC(C)SC1C` (centres undefined)?
Answer: odorant receptor activation [1]: 0.911; odorant receptor activation [2]: 1.43; odorant receptor activation [3]: 0.97; odorant receptor activation [4]: 1.54; odorant receptor activation [5]: 1.04 and 1.21; odorant receptor activation [6]: 0.884 and 1.07; odorant receptor activation [7]: 0.744 and 1.02; odorant receptor activation [8]: 1.04 and 0.725

Question: With `CC(C)C(=O)O` [isobutyric acid] as the compound, how does the odorant receptor activation [1] read?
Answer: Its odorant receptor activation is 0.763.

Question: And the odorant receptor activation [2]?
Answer: Its odorant receptor activation is 0.722.

Question: What about the odorant receptor activation [3] of the same compound?
Answer: The odorant receptor activation was 0.672.

Question: And the odorant receptor activation [10]?
Answer: Its odorant receptor activation is 0.789.

Question: What about the odorant receptor activation [4] of the same compound?
Answer: The odorant receptor activation was 1.08 and 0.877.

Question: What about the odorant receptor activation [5] of the same compound?
Answer: The odorant receptor activation was 0.815.

Question: And the odorant receptor activation [6]?
Answer: The odorant receptor activation was 1.16 and 0.955.

Question: And the odorant receptor activation [7]?
Answer: The odorant receptor activation was 1.05 and 0.795.

Question: And the odorant receptor activation [8]?
Answer: The odorant receptor activation was 0.977 and 0.777.

Question: What about the odorant receptor activation [9] of the same compound?
Answer: Its odorant receptor activation is 0.834.

Question: What does the source list for `CCCCCCC=O` [heptaldehyde]?
Answer: odorant receptor activation [1]: 0.807 and 0.802; odorant receptor activation [2]: 1.25 and 0.828; odorant receptor activation [3]: 1.3 and 0.829; odorant receptor activation [10]: 1.02; odorant receptor activation [4]: 0.916 and 0.977 and 0.961; odorant receptor activation [5]: 0.554 and 1.01 and 0.878; odorant receptor activation [9]: 0.779

Question: What does the source list for `CCCCCCCC=CC=O` [2-decenal]?
Answer: odorant receptor activation [1]: 1.15; odorant receptor activation [2]: 1.07; odorant receptor activation [3]: 2.09; odorant receptor activation [10]: 0.92; odorant receptor activation [4]: 0.38; odorant receptor activation [5]: 0.889; odorant receptor activation [6]: 1.12; odorant receptor activation [7]: 1.86; odorant receptor activation [8]: 2.04; odorant receptor activation [9]: 0.974

Question: Which results are given for `CC(C)(O)CCCC1=CCC(C=O)CC1` (centres undefined) [lyral]?
Answer: odorant receptor activation [10]: 0.96; odorant receptor activation [9]: 1.28

Question: Which results are given for `CC12C=CCC1C1CCC3=CC(=O)CCC3(C)C1CC2` (centres undefined) [androstadienone]?
Answer: odorant receptor activation [1]: 0.866; odorant receptor activation [2]: 0.911; odorant receptor activation [3]: 1.07; odorant receptor activation [4]: 1.26 and 1.09; odorant receptor activation [5]: 1.14; odorant receptor activation [6]: 1.19 and 1.23; odorant receptor activation [7]: 1.23 and 1.47; odorant receptor activation [8]: 0.93 and 1.4
